Some of the results follow. Values are raw readings; no control value is given beside them.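 First-pass screen: polymyxin B was added at a level that permeabilizes the Salmonella outer membrane while sparing the inner membrane. DMSO wells, with and without polymyxin B, defined maximum growth. Because plates differed from one another, each plate's data were ranked separately and the compounds with the lowest OD600 were carried forward as hits.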
Test system: Salmonella enterica serovar Typhimurium SL1344
Experiment: bacterial growth OD600 after 18 h with compound and polymyxin B; higher = more bacterial growth (less inhibition)
Details: 50 µM, Mueller-Hinton broth

| Structure (SMILES) | bacterial growth OD600 (polymyxin B 1 µg/mL) | bacterial growth OD600 (polymyxin B 0.75 µg/mL) |
| --- | --- | --- |
| CCOC(=O)C1(CCCc2ccccc2)CCCN(C(=O)c2cc3ncccn3n2)C1 (stereo not drawn) | 1.05 | – |
| CN(Cc1cnc2ccccn12)C(=O)c1csc2nc(-c3ccccc3)cn12 | 1.27 | – |
| CC1CN(C(=O)c2cc(COc3c(F)cccc3F)on2)CCN1C (stereo not drawn) | – | 0.842 |
| O=C(CCN1Cc2ccccc2OC(c2ccccc2)C1)NCc1c[nH]nc1-c1ccc(F)cc1 (stereo not drawn) | – | 0.944 |
| CN1CCN([C@@H]2CCN(Cc3ccccc3C#Cc3ccccc3)C[C@H]2O)CC1 | – | 0.74 |
| c1ccc(CNc2nc3nonc3nc2NCCc2ccccn2)cc1 | 0.661 | – |
| O=C1N(C2Cc3ccccc3C2)C[C@@H]2C[C@@H](c3cccn3-c3cccnc3)N3CCC[C@@]123 | 0.001 | – |
| Cc1ccc(OCCN(C)C(=O)C2CC23CCN(Cc2coc4ccccc4c2=O)CC3)cc1 (stereo not drawn) | – | 0.029 |
| Cc1cnc(C(=O)N2CCCC(CCc3ccccc3)C2)cn1 (stereo not drawn) | – | 0.881 |
| O=C(NCc1cccc(F)c1)C1CCC(=O)N(CCc2cccc(F)c2)C1 (stereo not drawn) | 0.813 | – |
| COc1ccc(CN2CCN(Cc3cc(F)ccc3F)CC2CCO)c(C)c1C (stereo not drawn) | 0.807 | – |
| CCC(COC)NC(=O)c1cc(OC)ccc1OC1CCN(C2CCCC2)CC1 (stereo not drawn) | 0.977 | – |
| CC(=O)NCC(=O)NC1CC(C)(C)Cc2c1cnn2-c1ccc(F)cc1 (stereo not drawn) | 1.1 | – |
| CC(=O)c1cc(CN2CCCC2C(=O)Nc2cccc(-n3cccn3)c2)cs1 (stereo not drawn) | – | 0.918 |
| COc1cc(NC(=O)CCC2CCCN(C(=O)CCn3ccnc3C)C2)cc(OC)c1 (stereo not drawn) | 1.05 | – |
| CC(=O)N1CCC[C@H]1C(=O)N1CCc2onc(-c3cccc(F)c3)c2C1 | – | 0.813 |
| CCOC(=O)C1(CCOc2ccccc2)CCN(Cc2cnc(C)s2)CC1 | 1.07 | – |

Given as tab-separated lines: 8 of the compounds above.
Structure (SMILES)	bacterial growth OD600 (polymyxin B 1 µg/mL)	bacterial growth OD600 (polymyxin B 0.75 µg/mL)
CCOC(=O)C1(CCCc2ccccc2)CCCN(C(=O)c2cc3ncccn3n2)C1 (stereo not drawn)	1.05	–
O=C(CCN1Cc2ccccc2OC(c2ccccc2)C1)NCc1c[nH]nc1-c1ccc(F)cc1 (stereo not drawn)	–	0.944
O=C1N(C2Cc3ccccc3C2)C[C@@H]2C[C@@H](c3cccn3-c3cccnc3)N3CCC[C@@]123	0.001	–
Cc1cnc(C(=O)N2CCCC(CCc3ccccc3)C2)cn1 (stereo not drawn)	–	0.881
COc1ccc(CN2CCN(Cc3cc(F)ccc3F)CC2CCO)c(C)c1C (stereo not drawn)	0.807	–
CC(=O)NCC(=O)NC1CC(C)(C)Cc2c1cnn2-c1ccc(F)cc1 (stereo not drawn)	1.1	–
CC(=O)c1cc(CN2CCCC2C(=O)Nc2cccc(-n3cccn3)c2)cs1 (stereo not drawn)	–	0.918
CC(=O)N1CCC[C@H]1C(=O)N1CCc2onc(-c3cccc(F)c3)c2C1	–	0.813

(listing goes on)

| Structure (SMILES) | bacterial growth OD600 (polymyxin B 1 µg/mL) | bacterial growth OD600 (polymyxin B 0.75 µg/mL) |
| --- | --- | --- |
| COc1cc(CC2(CCC(=O)NCc3c(F)cccc3F)CCC(=O)N2)ccc1F (stereo not drawn) | – | 0.838 |
| O=C(NCCCn1cccn1)c1ccc2nc(C3CCCCC3)oc2c1 | 0.953 | – |
| Cc1ccccc1-c1noc(-c2ccc(N(C)C(C)c3ccon3)nc2)n1 (stereo not drawn) | – | 0.429 |
| COc1ccc(C(=O)NC2CC2)c(OC2CCN(C(C)CCn3cccn3)CC2)c1 (stereo not drawn) | – | 0.793 |
| Cc1ccccc1CCC1CCCN(C(=O)c2cscn2)C1 (stereo not drawn) | – | 0.009 |
| Cc1occc1C(=O)NCc1nc(-c2ccc(NC(=O)Cc3ccccc3)cc2)oc1C | – | 0.85 |
| COc1ccc(N2C(=O)CN(C(=O)COc3ccccc3OC)CC23CCCC3)cc1 | – | 0.786 |
| COCc1ccc(C(=O)N2CCC(n3nccc3NC(=O)c3cccc(F)c3)CC2)o1 | 0.994 | – |
| Cc1cccc(C)c1Oc1ncccc1CNC(=O)CCc1c(C)noc1C | 1.32 | – |
| CN1CCN([C@@H]2CCN(Cc3ccc(-c4cccc(Cl)c4)o3)C[C@H]2O)CC1 | 0.86 | – |
| CCOC(=O)N1CCN(Cc2ccc3c(c2)CN(C(=O)[C@@H]2C[C@H]2c2ccccc2)CCO3)CC1 | – | 0.82 |
| CCN1CCN(Cc2nc(-c3ccc(Cl)cc3)oc2C)[C@@H](C)C1=O | 0.249 | – |
| COc1ccc(-c2cnnc(N3CCC(N(C)C)C3)n2)cc1F (stereo not drawn) | – | 0.88 |
| CCOC(=O)N1CCN(c2nncc(-c3ccc4ccccc4c3)n2)CC1 | – | 0.006 |
| COc1ccc(OCc2cc(C(=O)N(C)Cc3cc(C)no3)no2)c(Cl)c1 | 1.07 | – |
| Cc1nnc(CN(C)C(=O)CC(c2ccccc2)c2ccc(Cl)cc2)o1 (stereo not drawn) | 0.911 | – |

From the supplement of paper PMC12889115
